{"source": "the supplement of paper PMC4683952", "note": "Counter-ions that a name gives are not always drawn. Some of the results follow. Cut-off read from the data, not from the text of the source: active = 2.5 or more and inactive = the rest. Single values are uncertain here, since repeats match poorly."}
{"tested_on": "Lgr5 (MarsCy1-Lgr5-EGFP, U2OS)", "assay": "cell-surface Lgr5 expression (SCi1 fluorescence, background-subtracted) relative to WT control (fold of WT control); higher = more Lgr5 at the plasma membrane", "settings": "U2OS MarsCy1-Lgr5-EGFP stable; treatment time: overnight; library: Prestwick; 20 µM"}
{"compound": "CN1CCN(C(c2ccccc2)c2ccc(Cl)cc2)CC1", "note": "(stereo not drawn) [(1-[(4-Chlorophenyl)phenyl-methyl]-4-methylpiperazine)]", "cell-surface Lgr5 expression": "active: 2.62"}
{"compound": "O=C(N/N=C/c1ccc([N+](=O)[O-])o1)c1ccc(O)cc1", "note": "[Nifuroxazide]", "cell-surface Lgr5 expression": "inactive: 2.22"}
{"compound": "O=C1C=CC(=O)c2c1ccc1c2ccc2ccccc21", "note": "[Chrysene-1,4-quinone]", "cell-surface Lgr5 expression": "active: 2.81"}
{"compound": "CCC(=O)[C@@]1(C)[C@H](C)C[C@H]2[C@@H]3CCC4=CC(=O)C=C[C@]4(C)[C@H]3[C@@H](O)C[C@@]21C", "note": "[Rimexolone]", "cell-surface Lgr5 expression": "inactive: 2.26"}
{"compound": "CCc1cc(C(N)=S)ccn1", "note": "[Ethionamide]", "cell-surface Lgr5 expression": "inactive: 0.859"}
{"compound": "CN(N=O)C(=O)N[C@@H](C=O)[C@@H](O)[C@H](O)[C@H](O)CO", "note": "[Streptozotocin]", "cell-surface Lgr5 expression": "inactive: 2.32"}
{"compound": "CNCCC=C1c2ccccc2CCc2ccccc21", "note": "[Nortriptyline hydrochloride]", "cell-surface Lgr5 expression": "inactive: 1.28"}
{"compound": "C[C@H]1[C@H](NC(=O)/C(=N\\OC(C)(C)C(=O)O)c2csc(N)n2)C(=O)N1S(=O)(=O)O", "note": "[Aztreonam]", "cell-surface Lgr5 expression": "inactive: 2.49"}
{"compound": "Cc1ccc(/C(=C\\CN2CCCC2)c2ccccn2)cc1", "note": "[Triprolidine hydrochloride]", "cell-surface Lgr5 expression": "inactive: 1.63"}
{"compound": "CC(C)(O/N=C(\\C(=O)N[C@@H]1C(=O)N2C(C(=O)[O-])=C(C[n+]3ccccc3)CS[C@H]12)c1csc(N)n1)C(=O)O", "note": "[Ceftazidime pentahydrate]", "cell-surface Lgr5 expression": "inactive: 2.03"}
{"compound": "C[C@]12C=CC(=O)C=C1CC[C@@H]1[C@@H]2C(=O)C[C@@]2(C)[C@H]1CC[C@]2(O)C(=O)CO", "note": "[Prednisone]", "cell-surface Lgr5 expression": "inactive: 1.94"}
{"compound": "COc1cc(C)nc(-n2nc(C)cc2OC)n1", "note": "[Epirizole]", "cell-surface Lgr5 expression": "inactive: 1.33"}
{"compound": "CS(=O)(=O)Nc1ccc([N+](=O)[O-])cc1Oc1ccccc1", "note": "[Nimesulide]", "cell-surface Lgr5 expression": "inactive: 1.75"}
{"compound": "CCn1cc(C(=O)O)c(=O)c2cc(F)c(N3CCNC(C)C3)c(F)c21", "note": "(stereo not drawn) [Lomefloxacin hydrochloride]", "cell-surface Lgr5 expression": "inactive: 0.695"}
{"compound": "CNC(=C[N+](=O)[O-])NCCSCc1csc(CN(C)C)n1", "note": "[Nizatidine]", "cell-surface Lgr5 expression": "inactive: 1.91"}
{"compound": "CC[C@]12CCCN3CCc4c(n(c5ccccc45)C(=O)C1)[C@@H]32", "note": "[Eburnamonine (-)]", "cell-surface Lgr5 expression": "inactive: 1.87"}
{"compound": "CC(=O)Oc1cc(C(C)C)c(OCCN(C)C)cc1C", "note": "[Moxisylyte hydrochoride]", "cell-surface Lgr5 expression": "inactive: 1.53"}
{"compound": "C[C@@H]1C(=O)O[C@H]2C[C@@]34[C@H]5C[C@@H](C(C)(C)C)[C@]36[C@@H](OC(=O)[C@@H]6O)O[C@@]4(C(=O)O5)[C@]21O", "note": "[Ginkgolide A]", "cell-surface Lgr5 expression": "inactive: 0.911"}
{"compound": "C[N+]1(C)CCC(=C(c2ccccc2)c2ccccc2)CC1", "note": "[Diphemanil methylsulfate]", "cell-surface Lgr5 expression": "inactive: 1.25"}
{"compound": "NS(=O)(=O)c1cc2c(cc1Cl)NCNS2(=O)=O", "note": "[Hydrochlorothiazide]", "cell-surface Lgr5 expression": "inactive: 0.896"}
{"compound": "CN(C)CCC=C1c2ccccc2C=Cc2ccccc21", "note": "[Cyclobenzaprine hydrochloride]", "cell-surface Lgr5 expression": "active: 2.88"}
{"compound": "CNNCc1ccc(C(=O)NC(C)C)cc1", "note": "[Procarbazine hydrochloride]", "cell-surface Lgr5 expression": "inactive: 1.45"}
{"compound": "C[n+]1cccc(C(=O)[O-])c1", "note": "[Trigonelline]", "cell-surface Lgr5 expression": "active: 2.7"}
{"compound": "Nc1ccc(S(=O)(=O)Nc2ccc(Cl)nn2)cc1", "note": "[Sulfachloropyridazine]", "cell-surface Lgr5 expression": "inactive: 1.63"}
{"compound": "COc1cc2nc(N3CCN(C(=O)C4CCCO4)CC3)nc(N)c2cc1OC", "note": "(stereo not drawn) [Terazosin hydrochloride]", "cell-surface Lgr5 expression": "active: 3.37"}
{"compound": "CC(=O)OCC(=O)[C@@]1(O)CC[C@H]2[C@@H]3CCC4=CC(=O)C=C[C@]4(C)[C@@]3(F)[C@@H](O)C[C@@]21C", "note": "[Isoflupredone acetate]", "cell-surface Lgr5 expression": "active: 2.67"}
{"compound": "CN(C)CCCOc1nn(Cc2ccccc2)c2ccccc12", "note": "[Benzydamine hydrochloride]", "cell-surface Lgr5 expression": "inactive: 2.36"}
{"compound": "CCN1CCN(C(=O)N[C@@H](C(=O)N[C@@H]2C(=O)N3[C@@H]2SC(C)(C)[C@@H]3C(=O)O)c2ccccc2)C(=O)C1=O", "note": "[Piperacillin sodium salt]", "cell-surface Lgr5 expression": "inactive: 1.97"}
{"compound": "CO[C@@H]1[C@@H](OC(N)=O)[C@@H](O)[C@H](Oc2ccc3c(O)c(NC(=O)c4ccc(O)c(CC=C(C)C)c4)c(=O)oc3c2C)OC1(C)C", "note": "[Novobiocin sodium salt]", "cell-surface Lgr5 expression": "inactive: 1.74"}
{"compound": "CN1CCCCC1CCN1c2ccccc2Sc2ccc([S+](C)[O-])cc21", "note": "(stereo not drawn) [Mesoridazine besylate]", "cell-surface Lgr5 expression": "inactive: 1.39"}
{"compound": "NC(=O)N/N=C/c1ccc([N+](=O)[O-])o1", "note": "[Nitrofural]", "cell-surface Lgr5 expression": "active: 2.55"}
{"compound": "CCCC(=O)Nc1ncnc2c1ncn2[C@@H]1O[C@@H]2COP(=O)(O)O[C@H]2[C@H]1OC(=O)CCC", "note": "[Bucladesine sodium salt]", "cell-surface Lgr5 expression": "active: 2.6"}
{"compound": "CC1(C)OC(=O)NC1=O", "note": "[Dimethadione]", "cell-surface Lgr5 expression": "inactive: 1.69"}
{"compound": "N=C(N)NCC1COC2(CCCCC2)O1", "note": "(stereo not drawn) [Guanadrel sulfate]", "cell-surface Lgr5 expression": "inactive: 2.4"}
{"compound": "Cn1nnnc1SCC1=C(C(=O)O)N2C(=O)[C@@H](NC(=O)[C@H](O)c3ccccc3)[C@H]2SC1", "note": "[Cefamandole sodium salt]", "cell-surface Lgr5 expression": "inactive: 1.47"}
{"compound": "Nc1ccc(C(=O)NCC(=O)O)cc1", "note": "[Aminohippuric acid]", "cell-surface Lgr5 expression": "inactive: 1.52"}
{"compound": "COc1ccc(NS(=O)(=O)c2ccc(N)cc2)nn1", "note": "[Sulfamethoxypyridazine]", "cell-surface Lgr5 expression": "active: 3.82"}
{"compound": "Nc1ccc(S(=O)(=O)c2ccc(N)cc2)cc1", "note": "[Dapsone]", "cell-surface Lgr5 expression": "inactive: 1.97"}
{"compound": "OC[C@H]1O[C@@H](Oc2ccc(O)cc2)[C@H](O)[C@@H](O)[C@@H]1O", "note": "[Arbutin]", "cell-surface Lgr5 expression": "inactive: 1.28"}
{"compound": "OCCN1CCN(CCCN2c3ccccc3Sc3ccc(Cl)cc32)CC1", "note": "[Perphenazine]", "cell-surface Lgr5 expression": "inactive: 1.08"}
{"compound": "C#CCN(C)Cc1ccccc1", "note": "[Pargyline hydrochloride]", "cell-surface Lgr5 expression": "inactive: 1.12"}
{"compound": "COc1ccc2cc(CCC(C)=O)ccc2c1", "note": "[Nabumetone]", "cell-surface Lgr5 expression": "inactive: 1.85"}
{"compound": "Nc1c(O)cccc1C(=O)CC(N)C(=O)O", "note": "(racemic) [Kynurenine, 3-hydroxy (R,S)]", "cell-surface Lgr5 expression": "inactive: 1.26"}
{"compound": "CCn1cc(C(=O)O)c(=O)c2ccc(C)nc21", "note": "[Nalidixic acid sodium salt hydrate]", "cell-surface Lgr5 expression": "inactive: 1.45"}
{"compound": "CCN(CC)CCNC(=O)c1cc(S(C)(=O)=O)ccc1OC", "note": "[Tiapride hydrochloride]", "cell-surface Lgr5 expression": "inactive: 1.1"}
{"compound": "O=C(CCCN1CC=C(n2c(=O)[nH]c3ccccc32)CC1)c1ccc(F)cc1", "note": "[Droperidol]", "cell-surface Lgr5 expression": "inactive: 2.27"}
{"compound": "COc1cc2nc(N3CCN(C(=O)c4ccco4)CC3)nc(N)c2cc1OC", "note": "[Prazosin hydrochloride]", "cell-surface Lgr5 expression": "inactive: 1.86"}
{"compound": "CCn1cc(C(=O)O)c(=O)c2cnc(N3CCNCC3)nc21", "note": "[Pipemidic acid]", "cell-surface Lgr5 expression": "active: 2.51"}
{"compound": "COc1nc(C)nc(Cl)c1NC1=NCCN1", "note": "[Moxonidine]", "cell-surface Lgr5 expression": "inactive: 0.785"}
{"compound": "Cc1ccc(S(=O)(=O)NC(=O)NN2CC3CCCC3C2)cc1", "note": "(stereo not drawn) [Gliclazide]", "cell-surface Lgr5 expression": "active: 3.24"}
{"compound": "CC(=O)N[C@@H](CC(=O)N[C@@H](CCC(=O)O)C(=O)O)C(=O)O", "note": "[Spaglumic acid]", "cell-surface Lgr5 expression": "inactive: 1.25"}
{"compound": "COc1ccc(-c2cc(=O)c3c(O)cc(O)cc3o2)cc1", "note": "[Acacetin]", "cell-surface Lgr5 expression": "active: 3.13"}
{"compound": "O=c1c(O)c(-c2cc(O)c(O)c(O)c2)oc2cc(O)cc(O)c12", "note": "[Myricetin]", "cell-surface Lgr5 expression": "inactive: 1.67"}
{"compound": "COc1ccc(C(=O)NCc2cccnc2)cc1C(=O)NCc1cccnc1", "note": "[Picotamide monohydrate]", "cell-surface Lgr5 expression": "inactive: 0.963"}
{"compound": "NC[C@H]1O[C@H](O[C@H]2[C@H](O[C@@H]3O[C@H](CO)[C@@H](O)[C@H]3O)[C@@H](O)[C@H](N)C[C@@H]2N)[C@H](N)[C@@H](O)[C@@H]1O", "note": "[Ribostamycin sulfate salt]", "cell-surface Lgr5 expression": "inactive: 1.3"}
{"compound": "COc1ccc2[nH]cc(CCNC(C)=O)c2c1", "note": "[Melatonin]", "cell-surface Lgr5 expression": "inactive: 0.896"}
{"compound": "CC(C)N1CCN(c2ccc(OCC3COC(Cn4cncn4)(c4ccc(Cl)cc4Cl)O3)cc2)CC1", "note": "(stereo not drawn) [Terconazole]", "cell-surface Lgr5 expression": "active: 4.27"}
{"compound": "O=C(NCCNCC(O)COc1ccc(O)cc1)N1CCOCC1", "note": "(stereo not drawn) [Xamoterol hemifumarate]", "cell-surface Lgr5 expression": "inactive: 1.7"}
{"compound": "CCN(Cc1ccncc1)C(=O)C(CO)c1ccccc1", "note": "(stereo not drawn) [Tropicamide]", "cell-surface Lgr5 expression": "inactive: 1.04"}
{"compound": "CCN(CC)CC#CCOC(=O)C(O)(c1ccccc1)C1CCCCC1", "note": "(stereo not drawn) [Oxybutynin chloride]", "cell-surface Lgr5 expression": "inactive: 1.71"}
{"compound": "Cc1ncc([N+](=O)[O-])n1CCO", "note": "[Metronidazole]", "cell-surface Lgr5 expression": "inactive: 1.22"}
{"compound": "OC(CCN1CCCCC1)(c1ccccc1)C1CC2C=CC1C2", "note": "(stereo not drawn) [Biperiden hydrochloride]", "cell-surface Lgr5 expression": "active: 2.72"}
{"compound": "CC(C)NCC(O)COc1ccc(COCCOC(C)C)cc1", "note": "(stereo not drawn) [Bisoprolol fumarate]", "cell-surface Lgr5 expression": "inactive: 0.606"}
{"compound": "Nc1nc(=S)c2ncn([C@@H]3O[C@H](CO)[C@@H](O)[C@H]3O)c2[nH]1", "note": "[Thioguanosine]", "cell-surface Lgr5 expression": "inactive: 1.73"}
{"compound": "COc1c2ccoc2nc2c(OC)c(OCC(O)C(C)(C)O)ccc12", "note": "(stereo not drawn) [Evoxine]", "cell-surface Lgr5 expression": "inactive: 1.97"}
{"compound": "CC[C@H]1OC(=O)[C@H](C)[C@@H](O[C@H]2C[C@@](C)(OC)[C@@H](O)[C@H](C)O2)[C@H](C)[C@@H](O[C@@H]2O[C@H](C)C[C@H](N(C)C)[C@H]2O)[C@](C)(O)C[C@@H](C)/C(=N\\OCOCCOC)[C@H](C)[C@@H](O)[C@]1(C)O", "note": "[Roxithromycin]", "cell-surface Lgr5 expression": "active: 3.08"}
{"compound": "Nc1nc(=O)c2nc(CNc3ccc(C(=O)N[C@@H](CCC(=O)O)C(=O)O)cc3)cnc2[nH]1", "note": "[Folic acid]", "cell-surface Lgr5 expression": "active: 2.72"}
{"compound": "CC(=O)N[C@@H](CC(C)C)C(=O)O", "note": "[N-Acetyl-L-leucine]", "cell-surface Lgr5 expression": "inactive: 1.67"}
